The assay has as its target c-Myc (human (endogenous in SH-SY5Y and SK-N-BE(2))), P01106. In words: affinity purification with mass spectrometry; immunoprecipitation with c-Myc antibody from SH-SY5Y cell lysates, SDS-PAGE, Coomassie staining, mass spectrometry. As to conditions: remark: other sources report otherwise.

No constants are given. Whether binding was seen depends on the method and setting. In cells and extracts the contact can be indirect. These calls come from enrichment with a bait or labelling near it, and not all partners need be listed.

B1: lamin A (LMNA), P02545 1-646 (protein)
chain: METPSQRRATRSGAQASSTPLSPTRITRLQEKEDLQELNDRLAVYIDRVRSLETENAGLRLRITESEEVVSREVSGIKAAYEAELGDARKTLDSVAKERARLQLELSKVREEFKELKARNTKKEGDLIAAQARLKDLEALLNSKEAALSTALSEKRTLEGELHDLRGQVAKLEAALGEAKKQLQDEMLRRVDAENRLQTMKEELDFQKNIYSEELRETKRRHETRLVEIDNGKQREFESRLADALQELRAQHEDQVEQYKKELEKTYSAKLDNARQSAERNSNLVGAAHEELQQSRIRIDSLSAQLSQLQKQLAAKEAKLRDLEDSLARERDTSRRLLAEKEREMAEMRARMQQQLDEYQELLDIKLALDMEIHAYRKLLEGEEERLRLSPSPTSQRSRGRASSHSSQTQGGGSVTKKRKLESTESRSSFSQHARTSGRVAVEEVDEEGKFVRLRNKSNEDQSMGNWQIKRQNGDDPLLTYRFPPKFTLKAGQVVTIWAAGAGATHSPPTDLVWKAQNTWGCGNSLRTALINSTGEEVAMRKLVRSVTVVEDDEDEDGDDLLHHHHGSHCSSSGDPAEYNLRSRTVLCGTCGQPADKASASGSGAQVGGPISSGSSASSVTVTRSYRSVGGSGGGSFGDNLVTRSY
As to B1, the binding entry was “binds”.

These data come from paper PMC11106511.
